The other results are listed elsewhere or left out.
Tests used:
Assay in all cases: log2 fold change, soluble protein after heating vs DMSO (PISA); higher = thermal stabilisation; K562 cells, 10 uM, 30 min; active = over 0.2 and 3.5 SD of the protein, either way, in both replicates (recomputed)
[1] = compound: CS(=O)(=O)c1ccc(-c2cnc(N)c(C(=O)Nc3ccccc3)n2)cc1
Outline: (§1)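 Aliquots of K562 cells (2×10^6 cells/mL) treated with 10 μM compound for 30 min were heated for 3 min over 48°C-58°C. After pooling and extraction in PBS with 0.5% NP-40 at 4°C, soluble protein from a 21,000xg, 90 min spin was quantified by TMTpro 16plex LC-MS/MS with channel sums equalised. Thermal stability is expressed against control samples, from duplicates, as a log2 fold change.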

Amino acid sequences for entries named in this document (tags omitted). A change or cut given only in a name is not applied to a line headed by its entry.
UniProt Q8NBJ7: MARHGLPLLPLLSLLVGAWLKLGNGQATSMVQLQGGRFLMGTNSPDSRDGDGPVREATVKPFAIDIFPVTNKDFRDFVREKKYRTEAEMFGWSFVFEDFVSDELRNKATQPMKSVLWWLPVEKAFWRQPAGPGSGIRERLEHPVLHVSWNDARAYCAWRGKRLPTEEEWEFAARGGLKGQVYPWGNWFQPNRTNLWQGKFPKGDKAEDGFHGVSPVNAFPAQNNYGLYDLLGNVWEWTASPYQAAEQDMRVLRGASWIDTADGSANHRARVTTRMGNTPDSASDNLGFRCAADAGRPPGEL
UniProt Q7Z7C8, whole entry, looked up: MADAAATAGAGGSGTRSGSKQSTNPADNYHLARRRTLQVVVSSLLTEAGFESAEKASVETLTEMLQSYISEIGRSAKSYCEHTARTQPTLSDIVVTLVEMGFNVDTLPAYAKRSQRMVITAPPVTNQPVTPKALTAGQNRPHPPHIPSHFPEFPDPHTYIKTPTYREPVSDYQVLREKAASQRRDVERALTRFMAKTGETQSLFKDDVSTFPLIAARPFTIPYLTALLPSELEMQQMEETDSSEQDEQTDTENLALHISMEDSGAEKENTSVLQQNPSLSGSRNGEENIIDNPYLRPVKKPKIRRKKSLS
UniProt Q9UH65: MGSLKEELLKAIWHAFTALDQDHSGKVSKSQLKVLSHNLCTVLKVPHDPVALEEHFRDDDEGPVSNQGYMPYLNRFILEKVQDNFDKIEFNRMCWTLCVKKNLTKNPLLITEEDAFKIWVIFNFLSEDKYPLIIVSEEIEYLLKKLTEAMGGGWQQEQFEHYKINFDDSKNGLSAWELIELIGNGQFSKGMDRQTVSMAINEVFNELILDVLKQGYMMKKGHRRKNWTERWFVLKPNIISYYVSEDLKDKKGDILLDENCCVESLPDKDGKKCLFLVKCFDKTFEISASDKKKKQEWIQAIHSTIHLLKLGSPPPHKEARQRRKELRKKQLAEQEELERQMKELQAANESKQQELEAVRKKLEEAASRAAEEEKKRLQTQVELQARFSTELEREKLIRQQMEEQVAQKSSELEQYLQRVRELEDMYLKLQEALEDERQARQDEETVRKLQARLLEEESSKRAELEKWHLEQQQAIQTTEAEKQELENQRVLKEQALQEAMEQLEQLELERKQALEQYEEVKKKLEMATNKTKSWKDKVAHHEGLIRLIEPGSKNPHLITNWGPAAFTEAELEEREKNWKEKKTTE
UniProt O60499: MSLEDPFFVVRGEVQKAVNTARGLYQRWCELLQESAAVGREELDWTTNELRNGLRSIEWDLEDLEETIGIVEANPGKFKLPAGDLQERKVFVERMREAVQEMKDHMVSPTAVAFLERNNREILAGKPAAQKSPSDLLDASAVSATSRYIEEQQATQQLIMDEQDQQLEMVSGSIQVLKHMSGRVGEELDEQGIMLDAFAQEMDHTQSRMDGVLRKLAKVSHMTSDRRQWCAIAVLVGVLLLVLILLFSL
UniProt P61764, whole entry, looked up: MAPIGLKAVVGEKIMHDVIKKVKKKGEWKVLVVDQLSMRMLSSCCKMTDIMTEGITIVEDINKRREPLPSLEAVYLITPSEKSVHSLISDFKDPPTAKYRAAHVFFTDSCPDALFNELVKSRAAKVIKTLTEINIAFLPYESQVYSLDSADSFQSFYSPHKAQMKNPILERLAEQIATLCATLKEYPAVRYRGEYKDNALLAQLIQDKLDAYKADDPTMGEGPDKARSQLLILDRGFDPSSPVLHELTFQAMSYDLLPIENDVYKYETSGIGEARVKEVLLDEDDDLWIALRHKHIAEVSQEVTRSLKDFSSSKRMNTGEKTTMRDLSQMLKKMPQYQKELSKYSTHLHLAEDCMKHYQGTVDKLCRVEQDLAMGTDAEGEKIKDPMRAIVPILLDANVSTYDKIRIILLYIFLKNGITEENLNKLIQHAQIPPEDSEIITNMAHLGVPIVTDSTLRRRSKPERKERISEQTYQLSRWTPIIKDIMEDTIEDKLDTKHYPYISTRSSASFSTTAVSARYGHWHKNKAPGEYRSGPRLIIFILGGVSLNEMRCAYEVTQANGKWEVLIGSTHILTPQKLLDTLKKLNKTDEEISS
UniProt O60506: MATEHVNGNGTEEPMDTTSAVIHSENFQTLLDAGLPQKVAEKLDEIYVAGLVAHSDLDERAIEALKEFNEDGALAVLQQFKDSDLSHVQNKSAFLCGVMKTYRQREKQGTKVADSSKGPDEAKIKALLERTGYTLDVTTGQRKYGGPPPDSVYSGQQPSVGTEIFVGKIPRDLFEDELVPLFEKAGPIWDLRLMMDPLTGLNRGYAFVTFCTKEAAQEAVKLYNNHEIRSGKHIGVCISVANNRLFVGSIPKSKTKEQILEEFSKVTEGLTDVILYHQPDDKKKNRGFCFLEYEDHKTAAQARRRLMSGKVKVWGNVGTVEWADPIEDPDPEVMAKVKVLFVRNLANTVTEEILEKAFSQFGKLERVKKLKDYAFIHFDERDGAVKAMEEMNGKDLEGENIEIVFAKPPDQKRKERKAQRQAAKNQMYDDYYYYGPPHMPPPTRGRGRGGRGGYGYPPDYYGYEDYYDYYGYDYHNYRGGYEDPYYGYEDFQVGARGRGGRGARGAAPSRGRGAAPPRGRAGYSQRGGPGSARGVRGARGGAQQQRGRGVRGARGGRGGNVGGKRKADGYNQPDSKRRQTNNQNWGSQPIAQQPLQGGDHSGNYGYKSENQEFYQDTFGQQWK
UniProt Q7Z422: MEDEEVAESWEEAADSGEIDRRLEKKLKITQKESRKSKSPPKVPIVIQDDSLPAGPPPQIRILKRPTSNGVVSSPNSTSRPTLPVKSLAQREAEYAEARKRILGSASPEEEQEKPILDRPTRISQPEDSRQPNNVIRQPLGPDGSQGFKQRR
UniProt Q7L7X3: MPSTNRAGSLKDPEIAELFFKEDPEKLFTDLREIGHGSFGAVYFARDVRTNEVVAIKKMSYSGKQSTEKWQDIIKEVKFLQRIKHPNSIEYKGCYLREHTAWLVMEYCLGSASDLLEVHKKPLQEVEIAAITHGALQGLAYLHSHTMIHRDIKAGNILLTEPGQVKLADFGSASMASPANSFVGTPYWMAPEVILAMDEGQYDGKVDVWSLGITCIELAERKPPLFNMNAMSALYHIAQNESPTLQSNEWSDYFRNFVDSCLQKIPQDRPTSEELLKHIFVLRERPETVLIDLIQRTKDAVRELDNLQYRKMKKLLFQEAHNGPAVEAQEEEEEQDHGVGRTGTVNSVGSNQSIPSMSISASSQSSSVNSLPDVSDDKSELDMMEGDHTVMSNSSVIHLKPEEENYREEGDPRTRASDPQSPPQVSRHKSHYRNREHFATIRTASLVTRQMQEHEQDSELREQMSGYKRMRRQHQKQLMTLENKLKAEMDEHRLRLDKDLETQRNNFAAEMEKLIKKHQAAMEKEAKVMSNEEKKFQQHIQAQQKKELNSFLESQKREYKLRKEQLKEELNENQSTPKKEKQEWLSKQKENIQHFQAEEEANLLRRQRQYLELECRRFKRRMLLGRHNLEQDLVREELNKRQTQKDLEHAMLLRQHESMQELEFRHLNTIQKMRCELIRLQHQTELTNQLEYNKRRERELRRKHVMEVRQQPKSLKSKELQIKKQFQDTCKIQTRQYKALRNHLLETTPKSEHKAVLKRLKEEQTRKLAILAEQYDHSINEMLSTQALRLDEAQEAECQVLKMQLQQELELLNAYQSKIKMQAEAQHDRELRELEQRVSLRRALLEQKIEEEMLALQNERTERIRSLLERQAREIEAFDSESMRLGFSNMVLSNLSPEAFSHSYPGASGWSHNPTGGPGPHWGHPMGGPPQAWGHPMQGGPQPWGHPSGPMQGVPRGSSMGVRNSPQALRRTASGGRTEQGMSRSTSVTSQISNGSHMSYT
UniProt Q15833: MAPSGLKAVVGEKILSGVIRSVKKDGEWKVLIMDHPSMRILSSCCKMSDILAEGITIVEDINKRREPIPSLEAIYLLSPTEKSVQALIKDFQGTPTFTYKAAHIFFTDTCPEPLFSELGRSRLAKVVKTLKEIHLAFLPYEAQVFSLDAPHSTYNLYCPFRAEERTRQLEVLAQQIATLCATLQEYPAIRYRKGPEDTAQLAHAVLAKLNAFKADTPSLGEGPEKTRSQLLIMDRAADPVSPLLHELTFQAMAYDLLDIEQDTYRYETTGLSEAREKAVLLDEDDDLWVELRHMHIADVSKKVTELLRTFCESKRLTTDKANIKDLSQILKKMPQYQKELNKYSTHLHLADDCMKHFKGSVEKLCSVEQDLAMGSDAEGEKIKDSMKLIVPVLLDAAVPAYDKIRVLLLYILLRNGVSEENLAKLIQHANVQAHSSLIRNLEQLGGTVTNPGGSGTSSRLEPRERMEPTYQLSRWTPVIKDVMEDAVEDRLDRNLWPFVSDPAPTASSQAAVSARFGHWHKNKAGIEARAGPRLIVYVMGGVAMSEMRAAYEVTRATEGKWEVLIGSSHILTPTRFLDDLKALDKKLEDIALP
UniProt P17542, whole entry, looked up: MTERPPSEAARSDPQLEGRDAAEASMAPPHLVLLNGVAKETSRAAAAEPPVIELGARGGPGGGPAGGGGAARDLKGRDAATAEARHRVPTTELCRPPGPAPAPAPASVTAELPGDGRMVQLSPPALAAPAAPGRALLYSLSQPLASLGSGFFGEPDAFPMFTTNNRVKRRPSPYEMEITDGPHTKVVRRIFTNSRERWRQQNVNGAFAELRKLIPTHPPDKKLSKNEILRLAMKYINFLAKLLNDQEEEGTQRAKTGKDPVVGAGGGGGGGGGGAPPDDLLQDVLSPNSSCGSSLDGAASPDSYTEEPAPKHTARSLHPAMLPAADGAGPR
UniProt P16949: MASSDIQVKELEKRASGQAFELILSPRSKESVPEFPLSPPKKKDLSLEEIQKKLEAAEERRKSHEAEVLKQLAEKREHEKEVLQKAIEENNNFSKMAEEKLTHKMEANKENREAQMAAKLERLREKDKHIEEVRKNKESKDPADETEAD
UniProt Q15633: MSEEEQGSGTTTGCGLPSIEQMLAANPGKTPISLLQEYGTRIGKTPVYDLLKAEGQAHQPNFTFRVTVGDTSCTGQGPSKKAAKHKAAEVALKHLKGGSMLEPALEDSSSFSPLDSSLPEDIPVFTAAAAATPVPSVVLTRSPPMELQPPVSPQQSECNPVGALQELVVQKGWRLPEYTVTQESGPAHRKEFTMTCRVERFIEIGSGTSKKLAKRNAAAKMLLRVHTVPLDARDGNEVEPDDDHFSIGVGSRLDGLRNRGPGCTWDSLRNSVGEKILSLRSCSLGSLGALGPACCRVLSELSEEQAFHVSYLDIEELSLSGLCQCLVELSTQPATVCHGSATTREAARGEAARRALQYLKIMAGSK
UniProt Q13277: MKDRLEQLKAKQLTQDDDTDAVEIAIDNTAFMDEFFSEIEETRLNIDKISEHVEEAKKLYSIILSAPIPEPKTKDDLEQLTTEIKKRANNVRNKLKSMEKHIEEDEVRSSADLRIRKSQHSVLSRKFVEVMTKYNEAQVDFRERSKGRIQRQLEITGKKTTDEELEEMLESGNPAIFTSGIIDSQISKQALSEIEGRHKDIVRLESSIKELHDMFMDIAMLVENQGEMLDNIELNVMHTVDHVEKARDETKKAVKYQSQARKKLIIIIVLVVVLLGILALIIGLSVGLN

crizotinib = compound: C[C@@H](Oc1cc(-c2cnn(C3CCNCC3)c2)cnc1N)c1c(Cl)ccc(F)c1Cl [crizotinib]
Outline: as §1

[2] = compound: C[C@@H]1COCCN1C2=NC(=NC(=C2)C3(CC3)S(=O)(=O)C)C4=C5C=CNC5=CC=C4
Outline: as §1

[3] = compound: C[C@H](C1=CC=C(C=C1)C(=O)NC2=C3C=CNC3=NC=C2)N
Outline: as §1

duvelisib = compound: C[C@H](Nc1ncnc2nc[nH]c12)c1cc2cccc(Cl)c2c(=O)n1-c1ccccc1 [duvelisib]
Outline: as §1

gandotinib = compound: Cc1cc(Nc2cc(CN3CCOCC3)c3nc(C)c(Cc4ccc(Cl)cc4F)n3n2)n[nH]1 [gandotinib]
Outline: as §1

tozasertib = compound: Cc1cc(Nc2cc(N3CCN(C)CC3)nc(Sc3ccc(NC(=O)C4CC4)cc3)n2)n[nH]1 [tozasertib]
Outline: as §1

[4] = compound: Cc1cc(SCc2sc(-c3ccc(C(F)(F)F)cc3)nc2C)ccc1OCC(=O)O
Outline: as §1

doramapimod = compound: Cc1ccc(-n2nc(C(C)(C)C)cc2NC(=O)Nc2ccc(OCCN3CCOCC3)c3ccccc23)cc1 [doramapimod]
Outline: as §1

ispinesib = compound: Cc1ccc(C(=O)N(CCCN)[C@@H](c2nc3cc(Cl)ccc3c(=O)n2Cc2ccccc2)C(C)C)cc1 [ispinesib]
Outline: as §1

bafetinib = compound: Cc1ccc(NC(=O)c2ccc(CN3CC[C@H](N(C)C)C3)c(C(F)(F)F)c2)cc1Nc1nccc(-c2cncnc2)n1 [bafetinib]
Outline: as §1

[5] = compound: Cc1cccc(CC(=O)N2CCc3c2ccc(-c2cn(C)c4ncnc(N)c24)c3F)n1
Outline: as §1

nilotinib = compound: Cc1cn(-c2cc(NC(=O)c3ccc(C)c(Nc4nccc(-c5cccnc5)n4)c3)cc(C(F)(F)F)c2)cn1 [nilotinib]
Outline: as §1

[6] = compound: Cc1nc(Nc2n[nH]c3c2CN(C(=O)N[C@H](CN(C)C)c2ccccc2)C3(C)C)c2sccc2n1
Outline: as §1

dasatinib = compound: Cc1nc(Nc2ncc(C(=O)Nc3c(C)cccc3Cl)s2)cc(N2CCN(CCO)CC2)n1 [dasatinib]
Outline: as §1

[7] = compound: Cc1ncc(-c2ccnc(Nc3ccc(S(C)(=O)=O)cc3)n2)n1C(C)C
Outline: as §1

[8] = compound: Cn1cc(-c2ccc3c(c2)CCN3C(=O)Cc2cccc(C(F)(F)F)c2)c2c(N)ncnc21
Outline: as §1

[9] = compound: Cn1cc(-c2ccc3nnc(C(F)(F)c4ccc5ncccc5c4)n3n2)cn1
Outline: as §1

tipifarnib = compound: Cn1cncc1[C@@](N)(c1ccc(Cl)cc1)c1ccc2c(c1)c(-c1cccc(Cl)c1)cc(=O)n2C [tipifarnib]
Outline: as §1

mubritinib = compound: FC(F)(F)c1ccc(/C=C/c2nc(COc3ccc(CCCCn4ccnn4)cc3)co2)cc1 [mubritinib]
Outline: as §1

Measured: log2 fold change

SUMF2 (UniProt Q8NBJ7)
inactive: [1] 0.043 | crizotinib -0.056 | [2] -0.002 | [3] 0.037 | duvelisib -0.031 | gandotinib 0.016 | tozasertib 0.032 | [4] 0.026 | doramapimod 0.019 | ispinesib -0.066 | bafetinib -0.074 | [5] 0.038 | nilotinib -0.033 | [6] -0.019 | dasatinib -0.001 | [7] 0 | [8] -0.014 | [9] 0.03 | tipifarnib 0.034 | mubritinib -0.019

TACC3 (UniProt Q9Y6A5)
inactive: [1] 0 | crizotinib 0.084 | [2] 0.001 | [3] -0.042 | duvelisib 0.051 | gandotinib -0.047 | tozasertib 0.051 | [4] 0.004 | doramapimod -0.013 | ispinesib 0.033 | bafetinib -0.049 | [5] -0.009 | nilotinib 0.019 | [6] -0.01 | dasatinib 0.032 | [7] 0.015 | [8] 0.008 | [9] -0.008 | tipifarnib -0.029 | mubritinib 0.03

SYNJ2BP-COX16, A0A087WYV9
inactive: [1] -0.019 | crizotinib 0.012 | [2] -0.003 | [3] 0.041 | duvelisib 0.061 | gandotinib -0.063 | tozasertib 0.002 | [4] -0.026 | doramapimod 0.026 | ispinesib 0.006 | bafetinib -0.095 | [5] -0.049 | nilotinib 0.037 | [6] 0.069 | dasatinib 0.03 | [7] -0.002 | [8] 0.028 | [9] 0.027 | tipifarnib 0.047 | mubritinib -0.019

TAF8 isoform 2 (UniProt Q7Z7C8)
inactive: [1] -0.073 | crizotinib 0.01 | [2] 0.011 | [3] -0.01 | duvelisib -0.055 | gandotinib 0.041 | tozasertib 0.03 | [4] -0.04 | doramapimod -0.051 | ispinesib -0.015 | bafetinib -0.064 | [5] 0.117 | nilotinib -0.029 | [6] -0.009 | dasatinib 0.039 | [7] -0.08 | [8] 0.041 | [9] 0.001 | tipifarnib -0.001 | mubritinib 0.089

SWAP70 (UniProt Q9UH65)
inactive: [1] 0.014 | crizotinib -0.024 | [2] -0.014 | [3] -0.135 | duvelisib 0.036 | gandotinib -0.075 | tozasertib 0.008 | [4] -0.03 | doramapimod -0.009 | ispinesib 0.031 | bafetinib -0.013 | [5] 0.065 | nilotinib 0.012 | [6] -0.082 | dasatinib 0.016 | [7] 0.017 | [8] 0.022 | [9] -0.023 | tipifarnib 0.029 | mubritinib 0.02

STX10 (UniProt O60499)
inactive: [1] -0.031 | crizotinib 0.082 | [2] 0.029 | [3] -0.016 | duvelisib 0.072 | gandotinib 0.022 | tozasertib 0.014 | [4] 0.033 | doramapimod -0.032 | ispinesib 0.029 | bafetinib -0.119 | [5] -0.042 | nilotinib -0.007 | [6] -0.036 | dasatinib -0.018 | [7] 0.033 | [8] -0.004 | [9] 0.073 | tipifarnib -0.058 | mubritinib 0.123

STXBP1 (UniProt P61764)
inactive: [1] 0.055 | crizotinib -0.329 | [2] 0.072 | [3] 0 | duvelisib 0.214 | gandotinib -0.174 | tozasertib 0.063 | [4] 0.318 | doramapimod 0.003 | ispinesib -0.121 | bafetinib 0.103 | [5] 0.075 | nilotinib -0.039 | [6] -0.186 | dasatinib -0.292 | [7] 0.056 | [8] 0.127 | [9] 0.012 | tipifarnib 0.06 | mubritinib 0.286

SYNCRIP isoform 3 (UniProt O60506)
inactive: [1] -0.038 | crizotinib 0 | [2] -0.291 | [3] 0.193 | duvelisib -0.004 | gandotinib 0.088 | tozasertib 0.105 | [4] -0.212 | doramapimod 0.052 | ispinesib -0.344 | bafetinib 0.087 | [5] 0.01 | nilotinib -0.025 | [6] 0.009 | dasatinib 0.098 | [7] -0.025 | [8] -0.103 | [9] 0.05 | tipifarnib 0.065 | mubritinib -0.089

SZRD1 (UniProt Q7Z422)
inactive: [1] 0.036 | crizotinib -0.005 | [2] 0.089 | [3] -0.057 | duvelisib 0.07 | gandotinib 0.037 | tozasertib -0.049 | [4] -0.095 | doramapimod -0.009 | ispinesib 0.079 | bafetinib -0.063 | [5] -0.042 | nilotinib 0.004 | [6] 0.017 | dasatinib 0.051 | [7] -0.01 | [8] -0.091 | [9] -0.036 | tipifarnib -0.009 | mubritinib 0.038

TAOK1 (UniProt Q7L7X3)
inactive: [1] -0.002 | crizotinib -0.035 | [2] 0.011 | [3] -0.08 | gandotinib -0.029 | [4] 0.023 | doramapimod 0.021 | ispinesib -0.001 | bafetinib -0.056 | [5] 0.025 | nilotinib 0.007 | [6] -0.023 | dasatinib -0.014 | [7] -0.03 | [8] 0.043 | [9] -0.026 | tipifarnib 0.067 | mubritinib 0.078

STXBP2 isoform 3 (UniProt Q15833)
inactive: [1] 0.049 | crizotinib -0.301 | [2] 0.022 | [3] 0.039 | gandotinib -0.03 | [4] 0.17 | doramapimod 0.152 | ispinesib -0.306 | bafetinib 0.088 | [5] 0.096 | nilotinib -0.099 | [6] -0.147 | dasatinib -0.131 | [7] -0.014 | [8] 0.073 | [9] 0.086 | tipifarnib -0.086 | mubritinib 0.164

TAL1 (UniProt P17542)
inactive: [1] 0 | crizotinib 0.016 | [2] 0.072 | [3] -0.082 | duvelisib 0.02 | gandotinib 0.018 | tozasertib 0.028 | [4] 0 | doramapimod -0.001 | ispinesib -0.054 | bafetinib -0.037 | [5] -0.062 | nilotinib -0.024 | [6] 0.023 | dasatinib -0.042 | [7] -0.053 | [8] 0.019 | [9] 0.01 | tipifarnib 0.018 | mubritinib -0.005

STMN1 (UniProt P16949)
inactive: [1] -0.02 | crizotinib 0.029 | [2] -0.05 | [3] -0.03 | duvelisib 0.014 | gandotinib -0.006 | tozasertib -0.03 | [4] -0.047 | doramapimod -0.01 | ispinesib 0.004 | bafetinib 0.005 | [5] 0.008 | nilotinib 0.008 | [6] -0.007 | dasatinib -0.001 | [7] 0.022 | [8] 0.03 | [9] 0.004 | tipifarnib -0.034 | mubritinib 0.013

TARBP2 (UniProt Q15633)
inactive: [1] 0.121 | crizotinib -0.139 | [2] -0.171 | [3] 0.242 | duvelisib 0.007 | gandotinib 0.143 | tozasertib 0.06 | [4] 0.032 | doramapimod 0.174 | ispinesib 0.076 | bafetinib 0.014 | [5] -0.024 | nilotinib -0.044 | [6] -0.04 | dasatinib 0.029 | [7] -0.046 | [8] -0.199 | [9] -0.064 | tipifarnib 0.011 | mubritinib 0.106

STX3 (UniProt Q13277)
inactive: [1] 0.057 | crizotinib -0.019 | [2] 0.053 | [3] -0.016 | duvelisib 0.087 | gandotinib -0.063 | tozasertib -0.002 | [4] -0.015 | doramapimod 0.009 | ispinesib -0.155 | bafetinib 0.008 | [5] -0.012 | nilotinib 0.038 | [6] -0.02 | dasatinib 0.012 | [7] 0.043 | [8] 0.004 | [9] 0.051 | tipifarnib -0.053 | mubritinib -0.023

Reference: the supplement of paper PMC10849652
